No constants are given. Whether binding was seen depends on the method and setting. Binding calls can cover weak binding; strength is not graded here. Where a sequence is shown, tags or fusion partners need not be part of it.
Molecular target: Pol2 of Pol epsilon exo- (full length, exonuclease-inactivating mutations) (yeast (strains based on W303)) (UniProt P21951)
Assay: cryo-EM structure; 250 nM CMG bound to a desthiobiotin-labelled pre-formed DNA fork on streptavidin beads with 2 mM ATPgammaS, then 80 nM Pol epsilon exo-, 30 °C, eluted with biotin; no crosslinker; 4.9 Å; both purified

Sequences of proteins named here, by UniProt entry; tags and fusion partners are left off. A change or cut given only in a name is not applied to a line headed by its entry.
UniProt P21951: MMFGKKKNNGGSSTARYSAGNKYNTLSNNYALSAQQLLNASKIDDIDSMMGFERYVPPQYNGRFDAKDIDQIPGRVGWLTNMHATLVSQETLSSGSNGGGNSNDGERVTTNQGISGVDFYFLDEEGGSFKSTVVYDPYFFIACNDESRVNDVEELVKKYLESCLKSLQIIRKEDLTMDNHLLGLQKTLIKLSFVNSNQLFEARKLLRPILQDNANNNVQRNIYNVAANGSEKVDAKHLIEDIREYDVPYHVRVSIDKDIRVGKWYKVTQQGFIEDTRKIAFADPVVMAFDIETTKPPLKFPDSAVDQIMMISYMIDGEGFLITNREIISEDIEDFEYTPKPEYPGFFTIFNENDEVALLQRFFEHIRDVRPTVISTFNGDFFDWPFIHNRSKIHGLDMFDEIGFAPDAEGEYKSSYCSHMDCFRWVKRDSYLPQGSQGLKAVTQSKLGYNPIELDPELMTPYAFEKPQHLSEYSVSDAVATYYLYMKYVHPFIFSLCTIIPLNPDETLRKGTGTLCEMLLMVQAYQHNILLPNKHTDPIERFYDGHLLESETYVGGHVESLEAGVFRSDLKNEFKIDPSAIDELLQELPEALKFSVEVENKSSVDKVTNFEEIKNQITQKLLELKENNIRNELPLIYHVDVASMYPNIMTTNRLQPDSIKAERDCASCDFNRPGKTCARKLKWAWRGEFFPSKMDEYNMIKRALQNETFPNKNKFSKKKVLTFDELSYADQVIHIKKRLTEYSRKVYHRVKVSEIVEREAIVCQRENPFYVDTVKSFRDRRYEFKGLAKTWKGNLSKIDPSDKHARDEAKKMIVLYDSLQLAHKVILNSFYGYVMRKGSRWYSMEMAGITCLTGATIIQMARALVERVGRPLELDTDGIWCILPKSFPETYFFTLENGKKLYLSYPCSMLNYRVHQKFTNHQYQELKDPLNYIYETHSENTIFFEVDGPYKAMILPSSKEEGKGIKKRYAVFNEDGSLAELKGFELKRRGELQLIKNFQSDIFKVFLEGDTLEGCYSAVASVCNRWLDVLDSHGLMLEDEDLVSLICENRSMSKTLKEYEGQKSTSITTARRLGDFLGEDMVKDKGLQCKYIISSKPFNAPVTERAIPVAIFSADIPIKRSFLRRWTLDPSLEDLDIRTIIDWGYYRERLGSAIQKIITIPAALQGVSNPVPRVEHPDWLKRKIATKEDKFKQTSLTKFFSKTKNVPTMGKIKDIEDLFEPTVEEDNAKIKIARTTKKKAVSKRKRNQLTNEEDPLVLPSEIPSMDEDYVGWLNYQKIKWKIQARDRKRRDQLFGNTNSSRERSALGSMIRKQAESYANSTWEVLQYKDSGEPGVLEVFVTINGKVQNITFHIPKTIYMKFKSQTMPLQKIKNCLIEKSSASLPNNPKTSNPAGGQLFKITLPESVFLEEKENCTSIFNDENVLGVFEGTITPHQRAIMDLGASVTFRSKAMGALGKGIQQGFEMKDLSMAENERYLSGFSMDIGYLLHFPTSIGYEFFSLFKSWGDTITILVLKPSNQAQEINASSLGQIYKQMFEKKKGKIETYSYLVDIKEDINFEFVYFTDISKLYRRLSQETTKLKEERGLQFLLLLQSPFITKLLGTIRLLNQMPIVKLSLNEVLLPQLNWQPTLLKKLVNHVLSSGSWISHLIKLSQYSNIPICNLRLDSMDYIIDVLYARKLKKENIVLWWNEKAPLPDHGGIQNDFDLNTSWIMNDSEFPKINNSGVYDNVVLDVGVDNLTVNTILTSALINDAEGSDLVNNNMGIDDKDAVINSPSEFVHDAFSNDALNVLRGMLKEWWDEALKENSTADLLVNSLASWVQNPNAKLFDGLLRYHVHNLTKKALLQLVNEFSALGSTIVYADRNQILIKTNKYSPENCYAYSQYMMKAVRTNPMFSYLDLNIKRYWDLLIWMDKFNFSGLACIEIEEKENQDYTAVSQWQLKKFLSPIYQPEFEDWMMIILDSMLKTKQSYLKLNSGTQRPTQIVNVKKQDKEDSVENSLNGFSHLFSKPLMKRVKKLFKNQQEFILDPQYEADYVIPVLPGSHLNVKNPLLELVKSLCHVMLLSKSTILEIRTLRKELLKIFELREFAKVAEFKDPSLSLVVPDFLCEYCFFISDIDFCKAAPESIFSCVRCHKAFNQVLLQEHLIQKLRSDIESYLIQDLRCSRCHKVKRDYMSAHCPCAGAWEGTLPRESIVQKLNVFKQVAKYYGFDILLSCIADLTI

B1: Dpb2, subunit of the CBP-tagged Pol epsilon complexes (deltacat and exo-) (protein, UniProt P24482 1-689)
chain: MFGSGNVLPVKIQPPLLRPLAYRVLSRKYGLSIKSDGLSALAEFVGTNIGANWRQGPATIKFLEQFAAVWKQQERGLFIDQSGVKEVIQEMKEREKVEWSHEHPIQHEENILGRTDDDENNSDDEMPIAADSSLQNVSLSSPMRQPTERDEYKQPFKPESSKALDWRDYFKVINASQQQRFSYNPHKMQFIFVPNKKQNGLGGIAGFLPDIEDKVQMFLTRYYLTNDRVMRNENFQNSDMFNPLSSMVSLQNELSNTNRQQQSSSMSITPIKNLLGRDAQNFLLLGLLNKNFKGNWSLEDPSGSVEIDISQTIPTQGHYYVPGCMVLVEGIYYSVGNKFHVTSMTLPPGERREITLETIGNLDLLGIHGISNNNFIARLDKDLKIRLHLLEKELTDHKFVILGANLFLDDLKIMTALSKILQKLNDDPPTLLIWQGSFTSVPVFASMSSRNISSSTQFKNNFDALATLLSRFDNLTENTTMIFIPGPNDLWGSMVSLGASGTLPQDPIPSAFTKKINKVCKNVVWSSNPTRIAYLSQEIVIFRDDLSGRFKRHRLEFPFNESEDVYTENDNMMSKDTDIVPIDELVKEPDQLPQKVQETRKLVKTILDQGHLSPFLDSLRPISWDLDHTLTLCPIPSTMVLCDTTSAQFDLTYNGCKVINPGSFIHNRRARYMEYVPSSKKTIQEEIYI
Question: Which binding does the source give for B1 here?
Answer: Its binding is “binds”.

Reference: article PMC6265327
